Data as given in patent US6506889.
Results are given in words; binding and its absence hold for the method and conditions named. Some entries that bind do so weakly or less than the wild type. Where a sequence is shown, tags or fusion partners need not be part of it.

By UniProt entry, the sequences of proteins in these tests, tags left out. Where a name states a change or a piece, a line headed by the entry shows the natural chain unless it says otherwise.
UniProt P04386: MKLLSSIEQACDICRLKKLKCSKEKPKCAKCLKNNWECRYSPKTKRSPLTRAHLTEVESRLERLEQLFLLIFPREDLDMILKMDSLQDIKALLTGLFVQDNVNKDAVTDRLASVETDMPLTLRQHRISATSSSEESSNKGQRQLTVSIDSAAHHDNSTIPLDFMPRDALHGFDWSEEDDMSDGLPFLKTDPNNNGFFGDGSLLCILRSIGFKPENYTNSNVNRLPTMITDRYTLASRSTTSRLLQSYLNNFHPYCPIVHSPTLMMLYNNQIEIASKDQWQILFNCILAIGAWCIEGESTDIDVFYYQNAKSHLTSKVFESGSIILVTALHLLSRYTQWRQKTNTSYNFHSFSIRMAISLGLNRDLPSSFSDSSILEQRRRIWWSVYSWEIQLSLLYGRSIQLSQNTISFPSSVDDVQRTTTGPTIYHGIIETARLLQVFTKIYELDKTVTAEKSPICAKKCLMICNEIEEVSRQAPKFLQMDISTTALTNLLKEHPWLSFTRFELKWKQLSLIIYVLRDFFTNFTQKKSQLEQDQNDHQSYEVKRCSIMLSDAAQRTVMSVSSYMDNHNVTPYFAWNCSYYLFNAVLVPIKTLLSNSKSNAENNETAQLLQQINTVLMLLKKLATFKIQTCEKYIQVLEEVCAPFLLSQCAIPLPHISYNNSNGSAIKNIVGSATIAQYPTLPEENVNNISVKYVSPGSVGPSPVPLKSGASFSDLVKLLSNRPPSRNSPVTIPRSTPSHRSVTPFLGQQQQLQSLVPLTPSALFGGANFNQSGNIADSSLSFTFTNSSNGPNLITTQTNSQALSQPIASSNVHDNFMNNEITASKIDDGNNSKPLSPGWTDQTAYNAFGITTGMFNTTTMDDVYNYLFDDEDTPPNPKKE

What was measured:
[1] = molecular target: T1, N-Ras fused to the GAL4 DNA binding domain (mammalian) (UniProt P04386+P01111); assay: yeast two-hybrid
[2] = molecular target: T1, N-Ras fused to the GAL4 DNA binding domain (mammalian); assay: yeast two-hybrid, growth on His-selective media
[3] = molecular target: T1, N-Ras fused to the GAL4 DNA binding domain (mammalian); assay: yeast two-hybrid (GAL4 AD-SUR-8 with GAL4 DBD-Ras)
[4] = molecular target: wild type LET-60 Ras fused to the GAL4 DNA binding domain (C. elegans) (UniProt P04386+P22981); assay: yeast two-hybrid (GAL4 AD-SUR-8 with GAL4 DBD-Ras)

Measured: binding

B1: Human SUR-8 fused to the GAL4 activation domain (protein, not shown: large carriers)
chain: MSSSLGKEKDSKEKDPKVPSAKEREKEAKASGGFGKESKEKEPKTKGKDAKDGKKDSSAAQPGVAFSVDNTIKRPNPAPGTRKKSSNAEVIKELNKCREENSMRLDLSKRSIHILPSSIKELTQLTELYLYSNKLQSLPAEVGCLVNLMTLALSENSLTSLPDSLDNLKKLRMLDLRHNKLREIPSVVYRLDSLTTLYLRFNRITTVEKDIKNLSKLSMLSIRENKIKQLPAEIGELCNLITLDVAHNQLEHLPKEIGNCTQITNLDLQHNELLDLPDTIGNLSSLSRLGLRYNRLSAIPRSLAKCSALEELNLENNNISTLPESLLSSLVKLNSLTLARNCFQLYPVGGPSQFSTIYSLNMEHNRINKIPFGIFSRAKVLSKLNMKDNQLTSLPLDFGTWTSMVELNLATNQLTKIPEDVSGLVSLEVLILSNNLLKKLPHGLGNLRKLRELDLEENKLESLPNEIAYLKDLQKLVLTNNQLTTLPRGIGHLTNLTHLGLGENLLTHLPEEIGTLENLEELYLNDNPNLHSLPFELALCSKLSIMSIENCPLSHLPPQIVAGGPSFIIQFLKMQGPYRAMV
binds: [1] | [2] | [3] | [4]
